By UniProt entry, the sequences of proteins in these tests, tags left out. Where a name states a change or a piece, a line headed by the entry shows the natural chain unless it says otherwise.
UniProt Q9XVL8: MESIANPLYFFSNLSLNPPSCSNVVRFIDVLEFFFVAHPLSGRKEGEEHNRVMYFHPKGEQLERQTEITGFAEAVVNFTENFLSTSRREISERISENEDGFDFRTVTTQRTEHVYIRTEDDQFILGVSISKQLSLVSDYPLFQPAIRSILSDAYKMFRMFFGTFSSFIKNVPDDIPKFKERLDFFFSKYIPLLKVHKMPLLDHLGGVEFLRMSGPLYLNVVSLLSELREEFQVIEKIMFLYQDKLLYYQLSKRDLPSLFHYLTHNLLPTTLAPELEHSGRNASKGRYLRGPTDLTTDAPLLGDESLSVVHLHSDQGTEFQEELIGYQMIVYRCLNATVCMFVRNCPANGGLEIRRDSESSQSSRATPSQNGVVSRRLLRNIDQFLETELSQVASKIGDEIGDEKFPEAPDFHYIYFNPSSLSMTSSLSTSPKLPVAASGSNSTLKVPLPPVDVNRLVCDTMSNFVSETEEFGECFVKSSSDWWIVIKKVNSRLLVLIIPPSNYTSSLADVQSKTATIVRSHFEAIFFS

In PMC6268011:

T1: GST-GLO-3 (amino acids 1–219) (C. elegans) (UniProt Q21045)
T1 sequence: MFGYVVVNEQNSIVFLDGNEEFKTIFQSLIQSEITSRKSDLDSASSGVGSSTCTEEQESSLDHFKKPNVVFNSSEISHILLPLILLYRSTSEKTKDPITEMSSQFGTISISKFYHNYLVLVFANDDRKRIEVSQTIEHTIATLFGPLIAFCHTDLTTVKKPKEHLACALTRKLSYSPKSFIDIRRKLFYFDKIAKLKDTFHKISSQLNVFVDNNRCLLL

T2: GST-GLO-3 (full length, amino acids 1–607) (C. elegans) (UniProt Q21045)
T2 sequence: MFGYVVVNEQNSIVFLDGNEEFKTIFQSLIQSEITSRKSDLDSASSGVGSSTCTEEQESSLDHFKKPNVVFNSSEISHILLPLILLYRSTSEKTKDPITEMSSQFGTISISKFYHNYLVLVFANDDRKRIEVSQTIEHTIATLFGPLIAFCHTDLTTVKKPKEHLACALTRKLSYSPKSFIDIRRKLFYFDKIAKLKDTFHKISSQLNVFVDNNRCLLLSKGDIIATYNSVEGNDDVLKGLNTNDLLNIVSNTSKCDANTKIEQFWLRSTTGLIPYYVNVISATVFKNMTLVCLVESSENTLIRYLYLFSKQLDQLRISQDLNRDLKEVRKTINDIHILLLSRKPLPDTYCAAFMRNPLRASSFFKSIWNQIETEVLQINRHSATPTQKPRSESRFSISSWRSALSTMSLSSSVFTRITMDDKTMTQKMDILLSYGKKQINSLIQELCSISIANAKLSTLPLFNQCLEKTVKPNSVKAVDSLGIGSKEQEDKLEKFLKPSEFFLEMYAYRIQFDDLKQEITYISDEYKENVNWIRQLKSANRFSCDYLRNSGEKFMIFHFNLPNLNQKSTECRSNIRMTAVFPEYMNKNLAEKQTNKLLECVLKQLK


Experiments:
[1] = target: T1, GST-GLO-3 (amino acids 1–219) (C. elegans); experiment: pull-down; GST or GST-GLO-3 proteins (2.5 μg each) immobilised on glutathione-Sepharose beads, incubated with purified His6-CCZ-1 proteins in 1% BSA, 100mM Tris-HCl pH 7.5, 150mM NaCl, 10mM DTT, 0.05% NP40, 1mM PMSF at 4°C for 4 h; Western blot with anti-His6; both purified
[2] = target: T2, GST-GLO-3 (full length, amino acids 1–607) (C. elegans); experiment: as above
[3] = target: CCZ-1 (full length), LexA DNA binding domain fusion (bait) (C. elegans); experiment: two-hybrid; DupLEX-A system in S. cerevisiae EGY48; LexA DNA binding domain bait (pEG202), B42 activation domain prey (pJG4-5); LEU2 and lacZ (pSH18-34) reporters; 30°C, 3 days

Molecule | binding [1] | binding [2] | binding [3]
His6-tagged CCZ-1 (amino acids 1–200) (C. elegans) (domain or fragment) | binds | binds | 
His6-tagged CCZ-1 (full length, amino acids 1–528) (from UniProt Q9XVL8) |  | binds | 
GLO-3 (full length), B42 transcription activation domain fusion (prey) (protein, UniProt Q21045 1-607) MFGYVVVNEQNSIVFLDGNEEFKTIFQSLIQSEITSRKSDLDSASSGVGSSTCTEEQESSLDHFKKPNVVFNSSEISHILLPLILLYRSTSEKTKDPITEMSSQFGTISISKFYHNYLVLVFANDDRKRIEVSQTIEHTIATLFGPLIAFCHTDLTTVKKPKEHLACALTRKLSYSPKSFIDIRRKLFYFDKIAKLKDTFHKISSQLNVFVDNNRCLLLSKGDIIATYNSVEGNDDVLKGLNTNDLLNIVSNTSKCDANTKIEQFWLRSTTGLIPYYVNVISATVFKNMTLVCLVESSENTLIRYLYLFSKQLDQLRISQDLNRDLKEVRKTINDIHILLLSRKPLPDTYCAAFMRNPLRASSFFKSIWNQIETEVLQINRHSATPTQKPRSESRFSISSWRSALSTMSLSSSVFTRITMDDKTMTQKMDILLSYGKKQINSLIQELCSISIANAKLSTLPLFNQCLEKTVKPNSVKAVDSLGIGSKEQEDKLEKFLKPSEFFLEMYAYRIQFDDLKQEITYISDEYKENVNWIRQLKSANRFSCDYLRNSGEKFMIFHFNLPNLNQKSTECRSNIRMTAVFPEYMNKNLAEKQTNKLLECVLKQLK |  |  | binds

These are yes or no findings as the source states them, for the method shown. A result given as binding can be weak or reduced; the word gives no strength. Tags and fused reporters may be left off the sequences shown.
